These are yes or no findings as the source states them, for the method shown. In cells and extracts the contact can be indirect. Binding can be weak; no strength is given. Tags and fused reporters may be left off the sequences shown.
Columns and labels:
[1] = target: WFS1 tagged with N-terminal segment of YFP (nYFP) (not stated (cDNA from INS1 cells)); assay: split reporter; BiFC of WFS1 and vesicular cargo proteins in INS1 cells
[2] = target: WFS1 tagged with N-terminal segment of YFP (nYFP) (not stated (cDNA from INS1 cells)); assay: split reporter; HEK-293T cells transfected with 200 ng nYFP- and 200 ng cYFP-tagged constructs, 48 h, then 30 °C for 6 h; fluorescence by flow cytometry or confocal imaging of live cells
[3] = target: HA-tagged WFS1 (not stated (cDNA from INS1 cells)); assay: co-IP; proteins transiently expressed in HEK-293T cells; lysis in buffer A (20 mM Tris-HCl pH 7.5, 100 mM KCl, 5 mM MgCl2, 0.5% NP-40); anti-HA antibody on protein A/G magnetic beads overnight at 4 °C; immunoblot
[4] = target: HA-tagged WFS1 (not stated (cDNA from INS1 cells)); assay: proximity ligation; HEK-293T cells co-transfected with HA-tagged Wfs1 and cargo protein-cYFP or Myc-tagged COPII protein plasmids for 48 h, fixed, Duolink In Situ PLA with anti-rabbit PLUS and anti-mouse MINUS probes; puncta per cell counted

Measured: binding

B1: proinsulin tagged with C-terminal segment of YFP (cYFP) (protein, UniProt P01322 25-110)
chain: FVKQHLCGPHLVEALYLVCGERGFFYTPKSRREVEDPQVPQLELGGGPEAGDLQTLALEVARQKRGIVDQCCTSICSLYQLENYCN
binds: all assays above

B2: SCG5 tagged with cYFP (protein, UniProt P27682 25-210)
chain: YSPRTPDRVSETDIQRLLHGVMEQLGIARPRVEYPAHQAMNLVGPQSIEGGAHEGLQHLGPFGNIPNIVAELTGDNIPKDFSEDQGYPDPPNPCPLGKTADDGCLENAPDTAEFSREFQLDQHLFDPEHDYPGLGKWNKKLLYEKMKGGQRRKRRSVNPYLQGKRLDNVVAKKSVPHFSEEEKEPE
binds: all assays above
